Experimental data taken from patent US6472421B1, “Methods for treating, preventing, and reducing the risk of the onset of alzheimer's disease using an HMG CoA reductase inhibitor” (Nymox Corporation, priority 1998, dated 2002).
Entries after “also recorded” stand apart in the source; their conditions may differ. For at least one compound, name, drawing or mass did not settle the structure.

System: Alzheimer's disease (AD) in patients over the age of 60
Experiment: Health care database study at three hospitals: frequency of AD by medication (ICD-9-CM codes)
Format: in vivo, human
Conditions: patients over the age of 60, compared with total patient population
Description: To perform the study, relational databases at three different hospitals (Loyola Medical Center (“Loyola”), Hines Veterans Authority Medical Center (“Hines”), and Phoenix Veterans Authority Medical Center (“Phoenix”)) were searched to obtain aggregate data about the frequency of AD. Each database included clinical information that facilitated identification of potential relationships between specific items. […] Patient privacy was protected by using only aggregate patient data.
Each database was sorted to exclude any subjects under the age of 60 and any entries that contained patients' names but no medical information pertinent to the study. This yielded a total patient sample size for the three databases of 63,296 patients.
The frequency of AD for each medication was then determined using ICD-9-CM codes.
Alzheimer's disease was identified under the ICD-9-CM code of 331.0, but because other codes also apply to AD, the codes 331.2, 290.0, 290.10-13, 290.20 and 290.3 were also included as AD cases based on interviews with the physicians at each center who diagnosed or oversaw the diagnosis of patients with AD and on their coding practices for AD. The diagnosis of AD was made according to the criteria of the National Institute of Neurological and Communicative Disorders and Stroke (NINCDS) and the Alzheimer's Disease and Related Disorders Association (ADRDA) Work Group (McKhann et al., “Clinical Diagnosis of Alzheimer's Disease: Report of the NINCDS-ADRDA Work Group under the Auspices of Department of Health and Human Services Task Force on Alzheimer's Disease,” Neurology, 34:939-944 (1984).) Each AD patient had received either a CT scan or MRI to exclude other diagnoses, and had been screened for other metabolic, toxic, or affective disorders that may produce dementia.
Statistics were determined by comparisons of proportions using chi square analyses. All statistics listed P values and 95% confidence intervals.

| SMILES | effect on prevalence / risk of AD (in words) | effect on prevalence / risk of AD (in words) (listed as simavastatin) |
| --- | --- | --- |
| CC[C@H](C)C(=O)O[C@H]1C[C@H](O)C=C2C=C[C@H](C)[C@H](CC[C@@H](O)C[C@@H](O)CC(=O)O)[C@H]21 [Pravastatin, 1-naphthalene-hepatnoic acid, 1,2,6,7,8,8a-hexahydro-β,δ,6-trihydroxy-2-methyl-8-(2-methyl-1-oxobutoxy)] | marked decrease | – |
| CCC(C)(C)C(=O)O[C@H]1C[C@@H](C)C=C2C=C[C@H](C)[C@H](CC[C@@H]3C[C@@H](O)CC(=O)O3)[C@H]21 [Simvastatin, simvastatin] | did not differ significantly; also recorded: did not reduce the risk of AD | did not exhibit a significant reduction |
